Measured values reported in PubChem BioAssay AID186 (DTP/NCI, 2004).
The mice bore no tumour; each value counts animals alive of those treated. Survivors were counted at the toxicity check, usually on the fifth day, unless a day is given; later deaths do not show. Schedules are NCI's codes, read here as Q, the interval in days (D) or hours (H), X, the number of doses. Marks such as (2×) count equal records among those shown. Some doses were run more than once; the values are given in rising order.

Test system: B6D2F1 mice, nontumored toxicity test, survival
Experiment: NCI In Vivo Anticancer Drug Screen. Data for tumor model Nontumored Animals (Toxicity Test) in B6D2F1 (BDF1) mice
Settings: vehicle: saline

## O=P1(N(CCCl)CCCl)NCCCO1 (stereo unspecified)
dose: 6.25 mg/kg/injection, schedule: Q01DX017 (ip)
  survivor count: 8 of 8
dose: 10.0 mg/kg/injection, schedule: Q04DX003 (ip)
  survivor count: 5 of 5
dose: 12.5 mg/kg/injection, schedule: Q01DX009 (ip)
  survivor count: 8 of 8
dose: 12.5 mg/kg/injection, schedule: Q01DX017 (ip)
  survivor count: 8 of 8
dose: 18.0 mg/kg/injection, schedule: Q01DX009 (ip)
  survivor count: 5 of 5
dose: 20.0 mg/kg/injection, schedule: Q04DX003 (ip)
  survivor count: 5 of 5
dose: 25.0 mg/kg/injection, schedule: Q01DX009 (ip)
  survivor count: 8 of 8
dose: 25.0 mg/kg/injection, schedule: Q01DX017 (ip)
  survivor count: 8 of 8
dose: 25.0 mg/kg/injection, schedule: Q04DX003 (ip)
  survivor count: 8 of 8
dose: 25.0 mg/kg/injection, schedule: Q04DX005 (ip)
  survivor count: 8 of 8
dose: 25.0 mg/kg/injection, schedule: Q08DX002 (ip)
  survivor count: 6 of 6
dose: 25.0 mg/kg/injection, schedule: Q08DX003 (ip)
  survivor count: 6 of 6
dose: 30.0 mg/kg/injection, schedule: Q01DX009 (ip)
  survivor count: 5 of 5
dose: 40.0 mg/kg/injection, schedule: Q04DX003 (ip)
  survivor count: 5 of 5
dose: 50.0 mg/kg/injection, schedule: Q01DX001 (ip)
  survivor count: 4 of 4 and 8 of 8
dose: 50.0 mg/kg/injection, schedule: Q01DX009 (ip)
  survivor count: 5 of 5 and 8 of 8
dose: 50.0 mg/kg/injection, schedule: Q01DX017 (ip)
  survivor count: 8 of 8
dose: 50.0 mg/kg/injection, schedule: Q04DX003 (ip)
  survivor count: 8 of 8
dose: 50.0 mg/kg/injection, schedule: Q04DX005 (ip)
  survivor count: 8 of 8
dose: 50.0 mg/kg/injection, schedule: Q08DX002 (ip)
  survivor count: 6 of 6 and 8 of 8
dose: 50.0 mg/kg/injection, schedule: Q08DX003 (ip)
  survivor count: 6 of 6 and 8 of 8
dose: 65.0 mg/kg/injection, schedule: Q07DX004 (ip)
  survivor count: 8 of 8
dose: 72.0 mg/kg/injection, schedule: Q01DX001 (ip)
  survivor count: 5 of 5
dose: 75.0 mg/kg/injection, schedule: Q01DX001 (ip)
  survivor count: 10 of 10 and 4 of 4
dose: 80.0 mg/kg/injection, schedule: Q04DX003 (ip)
  survivor count: 5 of 5
dose: 83.0 mg/kg/injection, schedule: Q01DX009 (ip)
  survivor count: 5 of 5
dose: 100.0 mg/kg/injection, schedule: Q01DX001 (ip)
  survivor count: 10 of 10, 4 of 4, 8 of 8
dose: 100.0 mg/kg/injection, schedule: Q01DX009 (ip)
  survivor count: 8 of 8
dose: 100.0 mg/kg/injection, schedule: Q04DX003 (ip)
  survivor count: 8 of 8
dose: 100.0 mg/kg/injection, schedule: Q04DX005 (ip)
  survivor count: 8 of 8
dose: 100.0 mg/kg/injection, schedule: Q08DX002 (ip)
  survivor count: 6 of 6 and 8 of 8
dose: 100.0 mg/kg/injection, schedule: Q08DX003 (ip)
  survivor count: 6 of 6 and 8 of 8
dose: 108.0 mg/kg/injection, schedule: Q01DX001 (ip)
  survivor count: 5 of 6, 6 of 6, 8 of 8
dose: 108.0 mg/kg/injection, schedule: Q07DX004 (ip)
  survivor count: 8 of 8
dose: 120.0 mg/kg/injection, schedule: Q01DX001 (ip)
  survivor count: 5 of 5
dose: 133.0 mg/kg/injection, schedule: Q01DX001 (ip)
  survivor count: 10 of 10 (2×)
dose: 137.0 mg/kg/injection, schedule: Q01DX001 (ip)
  survivor count: 10 of 10
dose: 150.0 mg/kg/injection, schedule: Q01DX001 (ip)
  survivor count: 10 of 10 and 4 of 4
dose: 160.0 mg/kg/injection, schedule: Q04DX003 (ip)
  survivor count: 5 of 5
dose: 180.0 mg/kg/injection, schedule: Q01DX001 (ip)
  survivor count: 2 of 6, 3 of 8, 5 of 6, 8 of 8
dose: 180.0 mg/kg/injection, schedule: Q07DX004 (ip)
  survivor count: 8 of 8
dose: 200.0 mg/kg/injection, schedule: Q01DX001 (ip)
  survivor count: 10 of 10 (2×), 4 of 4, 5 of 5, 8 of 8, 9 of 9 (2×)
dose: 200.0 mg/kg/injection, schedule: Q04DX003 (ip)
  survivor count: 8 of 8
dose: 200.0 mg/kg/injection, schedule: Q04DX005 (ip)
  survivor count: 8 of 8
dose: 200.0 mg/kg/injection, schedule: Q08DX002 (ip)
  survivor count: 8 of 8
dose: 200.0 mg/kg/injection, schedule: Q08DX003 (ip)
  survivor count: 8 of 8
dose: 209.0 mg/kg/injection, schedule: Q01DX001 (ip)
  survivor count: 10 of 10
dose: 250.0 mg/kg/injection, schedule: Q01DX001 (ip)
  survivor count: 10 of 10
dose: 256.0 mg/kg/injection, schedule: Q01DX001 (sc)
  survivor count: 6 of 6
dose: 300.0 mg/kg/injection, schedule: Q01DX001 (ip)
  survivor count: 3 of 8, 7 of 8, 9 of 10, 10 of 10 (2×), 4 of 4, 6 of 6, 8 of 8
dose: 300.0 mg/kg/injection, schedule: Q07DX004 (ip)
  survivor count: 8 of 8
dose: 312.0 mg/kg/injection, schedule: Q01DX001 (ip)
  survivor count: 10 of 10
dose: 320.0 mg/kg/injection, schedule: Q01DX001 (sc)
  survivor count: 6 of 6
dose: 333.0 mg/kg/injection, schedule: Q01DX001 (ip)
  survivor count: 5 of 5
dose: 350.0 mg/kg/injection, schedule: Q01DX001 (ip)
  survivor count: 8 of 9, 9 of 10, 10 of 10
dose: 375.0 mg/kg/injection, schedule: Q01DX001 (ip)
  survivor count: 10 of 10
dose: 400.0 mg/kg/injection, schedule: Q01DX001 (ip)
  survivor count: 10 of 10, 4 of 4, 8 of 8
dose: 400.0 mg/kg/injection, schedule: Q01DX001 (sc)
  survivor count: 5 of 6
dose: 400.0 mg/kg/injection, schedule: Q08DX002 (ip)
  survivor count: 8 of 8
dose: 400.0 mg/kg/injection, schedule: Q08DX003 (ip)
  survivor count: 8 of 8
dose: 499.0 mg/kg/injection, schedule: Q01DX001 (ip)
  survivor count: 8 of 9 and 10 of 10
dose: 500.0 mg/kg/injection, schedule: Q01DX001 (ip)
  survivor count: 0 of 8, 2 of 6, 3 of 8, 4 of 8, 5 of 8
dose: 500.0 mg/kg/injection, schedule: Q01DX001 (sc)
  survivor count: 0 of 6
dose: 560.0 mg/kg/injection, schedule: Q01DX001 (ip)
  survivor count: 2 of 4 and 6 of 8
dose: 600.0 mg/kg/injection, schedule: Q01DX001 (ip)
  survivor count: 2 of 3
dose: 625.0 mg/kg/injection, schedule: Q01DX001 (sc)
  survivor count: 1 of 6
